Results taken from article PMC12951568, “Identifying Structural Factors Governing the Photodynamic Activity of Phthalocyanines” (Journal of Medicinal Chemistry, 2026).
Read-outs that look alike come from different tables or passages of the source. Some compounds share one wording; it may come from a single statement.

Columns and labels:
[1] = tested on: HeLa cells; assay: Subcellular localization on HeLa cells (fluorescence microscopy); assay type: cell-based, human; set-up: key to Subcellular localization (HeLa): Ly, lysosomes; Me, membrane; Mi, mitochondria; conditions: for Subcellular localization (HeLa), in words: this work; for Subcellular localization (HeLa): 12 h incubation, t.w. = this work
[2] = tested on: HeLa cells; set-up: method as in number not printed in Table 2; conditions: 12 h incubation; determined previously at the same workplace and published; ref number not given; cited from earlier work

O=C([O-])c1cc(Oc2cc3c(cc2Oc2cc(C(=O)[O-])cc(C(=O)[O-])c2)C2=Nc4c5ccccc5c5[n]4[Zn][n]4c(c6ccccc6c4=NC3=N2)=NC2=NC(=N5)c3ccccc32)cc(C(=O)[O-])c1.[Na+].[Na+].[Na+].[Na+] [A1Zn]
Subcellular localization (HeLa), in words [1]: Cytoplasmic membrane localization (in addition to that of lysosomes)

Cc1cc(OCc2cn(CCOCCOCCO)nn2)c(Oc2nc3c(nc2Oc2c(OCc4cn(CCOCCOCCO)nn4)cc(C)cc2OCc2cn(CCOCCOCCO)nn2)C2=Nc4c5nc(Oc6c(OCc7cn(CCOCCOCCO)nn7)cc(C)cc6OCc6cn(CCOCCOCCO)nn6)c(Oc6c(OCc7cn(CCOCCOCCO)nn7)cc(C)cc6OCc6cn(CCOCCOCCO)nn6)nc5c5[n]4[Zn][n]4c(c6nc(Oc7c(OCc8cn(CCOCCOCCO)nn8)cc(C)cc7OCc7cn(CCOCCOCCO)nn7)c(Oc7c(OCc8cn(CCOCCOCCO)nn8)cc(C)cc7OCc7cn(CCOCCOCCO)nn7)nc6c4=NC4=NC(=N5)c5nc(Oc6c(OCc7cn(CCOCCOCCO)nn7)cc(C)cc6OCc6cn(CCOCCOCCO)nn6)c(Oc6c(OCc7cn(CCOCCOCCO)nn7)cc(C)cc6OCc6cn(CCOCCOCCO)nn6)nc54)=NC3=N2)c(OCc2cn(CCOCCOCCO)nn2)c1 [N7Zn]
Subcellular localization (HeLa) [1]: Ly

Cc1cc(Cn2cc[n+](C)c2)c(Oc2cc3c(cc2Oc2c(Cn4cc[n+](C)c4)cc(C)cc2Cn2cc[n+](C)c2)C2=Nc4c5ccccc5c5[n]4[Zn][n]4c(c6ccccc6c4=NC3=N2)=NC2=NC(=N5)c3ccccc32)c(Cn2cc[n+](C)c2)c1.[I-].[I-].[I-].[I-] [C3Zn]
Subcellular localization (HeLa) [2]: Ly, Me

C[n+]1cccc(Oc2ccc3c(c2)C2=NC3=Nc3c4cc(Oc5ccc[n+](C)c5)ccc4c4[n]3[Zn][n]3c(c5ccc(Oc6ccc[n+](C)c6)cc5c3=NC3=NC(=N4)c4cc(Oc5ccc[n+](C)c5)ccc43)=N2)c1.O=S(=O)(O)O.O=S(=O)(O)O.O=S(=O)([O-])[O-].O=S(=O)([O-])[O-] [C5Zn-SO 4]
Subcellular localization (HeLa) [1]: Ly

O=S(=O)([O-])c1ccc(Oc2cccc3c2C2=Cc4c5cccc(Oc6ccc(S(=O)(=O)[O-])c7cccnc67)c5c5[n]4[Zn][n]4c(c6cccc(Oc7ccc(S(=O)(=O)[O-])c8cccnc78)c6c4=CC3=N2)=CC2=NC(=C5)c3cccc(Oc4ccc(S(=O)(=O)[O-])c5cccnc45)c32)c2ncccc12.[Na+].[Na+].[Na+].[Na+] [A8Zn]
Subcellular localization (HeLa) [1]: Ly

O=C([O-])c1cc(C(=O)[O-])cc(-c2cc3c(cc2-c2cc(C(=O)[O-])cc(C(=O)[O-])c2)C2=Nc4c5cc(-c6cc(C(=O)[O-])cc(C(=O)[O-])c6)c(-c6cc(C(=O)[O-])cc(C(=O)[O-])c6)cc5c5[n]4[Zn][n]4c(c6cc(-c7cc(C(=O)[O-])cc(C(=O)[O-])c7)c(-c7cc(C(=O)[O-])cc(C(=O)[O-])c7)cc6c4=NC4=NC(=N5)c5cc(-c6cc(C(=O)[O-])cc(C(=O)[O-])c6)c(-c6cc(C(=O)[O-])cc(C(=O)[O-])c6)cc54)=NC3=N2)c1.[Na+].[Na+].[Na+].[Na+].[Na+].[Na+].[Na+].[Na+].[Na+].[Na+].[Na+].[Na+].[Na+].[Na+].[Na+].[Na+] [A4Zn]
Subcellular localization (HeLa) [1]: Ly

O=S(=O)([O-])c1ccc(Oc2ccc3c(c2)C2=Cc4c5ccc(Oc6ccc(S(=O)(=O)[O-])c7cccnc67)cc5c5[n]4[Zn][n]4c(c6ccc(Oc7ccc(S(=O)(=O)[O-])c8cccnc78)cc6c4=CC3=N2)=CC2=NC(=C5)c3ccc(Oc4ccc(S(=O)(=O)[O-])c5cccnc45)cc32)c2ncccc12.[Na+].[Na+].[Na+].[Na+] [A6Zn]
Subcellular localization (HeLa) [1]: Ly

C[n+]1cccc(Oc2ccc3c(c2)C2=NC3=Nc3c4cc(Oc5ccc[n+](C)c5)ccc4c4[n]3[Zn][n]3c(c5ccc(Oc6ccc[n+](C)c6)cc5c3=NC3=NC(=N4)c4cc(Oc5ccc[n+](C)c5)ccc43)=N2)c1.F[P-](F)(F)(F)(F)F.F[P-](F)(F)(F)(F)F.F[P-](F)(F)(F)(F)F.F[P-](F)(F)(F)(F)F [C5Zn-PF 6]
Subcellular localization (HeLa) [1]: Ly

NCCc1ccc(Oc2cccc3c2C2=NC3=Nc3c4ccccc4c4[n]3[Zn][n]3c(c5ccccc5c3=N2)=NC2=NC(=N4)c3ccccc32)cc1 [C15Zn]
Subcellular localization (HeLa) [1]: Ly

Cc1cc(OCc2cn(CCOCCOCCO)nn2)c(Oc2cc3c(cc2Oc2c(OCc4cn(CCOCCOCCO)nn4)cc(C)cc2OCc2cn(CCOCCOCCO)nn2)C2=Nc4c5cc(Oc6c(OCc7cn(CCOCCOCCO)nn7)cc(C)cc6OCc6cn(CCOCCOCCO)nn6)c(Oc6c(OCc7cn(CCOCCOCCO)nn7)cc(C)cc6OCc6cn(CCOCCOCCO)nn6)cc5c5[n]4[Zn][n]4c(c6cc(Oc7c(OCc8cn(CCOCCOCCO)nn8)cc(C)cc7OCc7cn(CCOCCOCCO)nn7)c(Oc7c(OCc8cn(CCOCCOCCO)nn8)cc(C)cc7OCc7cn(CCOCCOCCO)nn7)cc6c4=NC4=NC(=N5)c5cc(Oc6c(OCc7cn(CCOCCOCCO)nn7)cc(C)cc6OCc6cn(CCOCCOCCO)nn6)c(Oc6c(OCc7cn(CCOCCOCCO)nn7)cc(C)cc6OCc6cn(CCOCCOCCO)nn6)cc54)=NC3=N2)c(OCc2cn(CCOCCOCCO)nn2)c1 [N6Zn]
Subcellular localization (HeLa) [1]: Ly

O=C([O-])c1cc(C(=O)[O-])cc(-c2nc3c(nc2-c2cc(C(=O)[O-])cc(C(=O)[O-])c2)C2=Nc4c5nc(-c6cc(C(=O)[O-])cc(C(=O)[O-])c6)c(-c6cc(C(=O)[O-])cc(C(=O)[O-])c6)nc5c5[n]4[Zn][n]4c(c6nc(-c7cc(C(=O)[O-])cc(C(=O)[O-])c7)c(-c7cc(C(=O)[O-])cc(C(=O)[O-])c7)nc6c4=NC4=NC(=N5)c5nc(-c6cc(C(=O)[O-])cc(C(=O)[O-])c6)c(-c6cc(C(=O)[O-])cc(C(=O)[O-])c6)nc54)=NC3=N2)c1.[Na+].[Na+].[Na+].[Na+].[Na+].[Na+].[Na+].[Na+].[Na+].[Na+].[Na+].[Na+].[Na+].[Na+].[Na+].[Na+] [A5Zn]
Subcellular localization (HeLa) [1]: Ly

Cc1cc(OCc2cn(CCO[C@@H]3O[C@H](CO)[C@@H](O)[C@H](O)[C@H]3O)nn2)c(Oc2cc3c(cc2Oc2c(OCc4cn(CCO[C@@H]5O[C@H](CO)[C@@H](O)[C@H](O)[C@H]5O)nn4)cc(C)cc2OCc2cn(CCO[C@@H]4O[C@H](CO)[C@@H](O)[C@H](O)[C@H]4O)nn2)C2=Nc4c5ccccc5c5[n]4[Zn][n]4c(c6ccccc6c4=NC3=N2)=NC2=NC(=N5)c3ccccc32)c(OCc2cn(CCO[C@@H]3O[C@H](CO)[C@@H](O)[C@H](O)[C@H]3O)nn2)c1 [N4Zn]
Subcellular localization (HeLa) [1]: Ly

Cc1cc(OCc2cn(CCOCCOCCO)nn2)c(Oc2cc3c(cc2Oc2c(OCc4cn(CCOCCOCCO)nn4)cc(C)cc2OCc2cn(CCOCCOCCO)nn2)C2=Nc4c5ccccc5c5[n]4[Zn][n]4c(c6ccccc6c4=NC3=N2)=NC2=NC(=N5)c3ccccc32)c(OCc2cn(CCOCCOCCO)nn2)c1 [N3Zn]
Subcellular localization (HeLa) [1]: Ly

O=S(=O)([O-])c1cc(S(=O)(=O)[O-])c2cc(Oc3cccc4c3C3=NC4=Nc4c5c(Oc6ccc7cc(S(=O)(=O)[O-])cc(S(=O)(=O)[O-])c7c6)cccc5c5[n]4[Zn][n]4c(c6cccc(Oc7ccc8cc(S(=O)(=O)[O-])cc(S(=O)(=O)[O-])c8c7)c6c4=NC4=NC(=N5)c5c(Oc6ccc7cc(S(=O)(=O)[O-])cc(S(=O)(=O)[O-])c7c6)cccc54)=N3)ccc2c1.[Na+].[Na+].[Na+].[Na+].[Na+].[Na+].[Na+].[Na+] [A7Zn]
Subcellular localization (HeLa) [1]: Ly

OCc1cc(CO)cc(OCCCCSC2=C(SCCCCOc3cc(CO)cc(CO)c3)C3=Nc4c5ccccc5c5[n]4[Mg][n]4c(c6ccccc6c4=NC4=NC(=N5)c5ccccc54)=NC2=N3)c1 [N2Mg]
Subcellular localization (HeLa) [1]: Ly

C[n+]1cccc(Oc2cc3c(cc2Oc2ccc[n+](C)c2)C2=Nc4c5cc(Oc6ccc[n+](C)c6)c(Oc6ccc[n+](C)c6)cc5c5[n]4[Zn][n]4c(c6cc(Oc7ccc[n+](C)c7)c(Oc7ccc[n+](C)c7)cc6c4=NC4=NC(=N5)c5cc(Oc6ccc[n+](C)c6)c(Oc6ccc[n+](C)c6)cc54)=NC3=N2)c1.[I-].[I-].[I-].[I-].[I-].[I-].[I-].[I-] [C6Zn]
Subcellular localization (HeLa) [1]: Ly

O=C([O-])c1cc(C(=O)[O-])cc(-c2cc3c(cc2-c2cc(C(=O)[O-])cc(C(=O)[O-])c2)C2=Nc4c5ccccc5c5[n]4[Zn][n]4c(c6ccccc6c4=NC3=N2)=NC2=NC(=N5)c3ccccc32)c1.[Na+].[Na+].[Na+].[Na+] [A2Zn]
Subcellular localization (HeLa), in words [1]: Cytoplasmic membrane localization (in addition to that of lysosomes)

O=S(=O)([O-])c1ccc2c(c1)-c1nc-2nc2[nH]c(nc3nc(nc4[nH]c(n1)c1ccccc41)-c1ccc(S(=O)(=O)[O-])cc1-3)c1ccc(S(=O)(=O)[O-])cc21.[Na+].[Na+].[Na+] [A9H]
Subcellular localization (HeLa), in words [1]: Cytoplasmic membrane localization (in addition to that of lysosomes)

COCCOCCOCCOCCOc1ccc(OCCOCCOCCOCCOC)c2c1C1=NC2=Nc2c3ccccc3c3[n]2[Zn][n]2c(c4ccccc4c2=N1)=NC1=NC(=N3)c2ccccc21 [N1Zn]
Subcellular localization (HeLa) [1]: Mi | Subcellular localization (HeLa), in words [1]: exclusive mitochondrial localization

O=C([O-])c1cc(Oc2cc3c(cc2Oc2cc(C(=O)[O-])cc(C(=O)[O-])c2)C2=Nc4c5cc(Oc6cc(C(=O)[O-])cc(C(=O)[O-])c6)c(Oc6cc(C(=O)[O-])cc(C(=O)[O-])c6)cc5c5[n]4[Zn][n]4c(c6cc(Oc7cc(C(=O)[O-])cc(C(=O)[O-])c7)c(Oc7cc(C(=O)[O-])cc(C(=O)[O-])c7)cc6c4=NC4=NC(=N5)c5cc(Oc6cc(C(=O)[O-])cc(C(=O)[O-])c6)c(Oc6cc(C(=O)[O-])cc(C(=O)[O-])c6)cc54)=NC3=N2)cc(C(=O)[O-])c1.[Na+].[Na+].[Na+].[Na+].[Na+].[Na+].[Na+].[Na+].[Na+].[Na+].[Na+].[Na+].[Na+].[Na+].[Na+].[Na+] [A3Zn]
Subcellular localization (HeLa) [1]: Ly

CC[N+](CC)(CC)CCSc1cc2c(cc1SCC[N+](CC)(CC)CC)C1=Nc3c4cc(SCC[N+](CC)(CC)CC)c(SCC[N+](CC)(CC)CC)cc4c4[n]3[Zn][n]3c(c5cc(SCC[N+](CC)(CC)CC)c(SCC[N+](CC)(CC)CC)cc5c3=NC3=NC(=N4)c4cc(SCC[N+](CC)(CC)CC)c(SCC[N+](CC)(CC)CC)cc43)=NC2=N1.[I-].[I-].[I-].[I-].[I-].[I-].[I-].[I-] [C8Zn]
Subcellular localization (HeLa) [1]: Ly

C[n+]1cccc(Oc2ccc3c(c2)C2=NC3=Nc3c4cc(Oc5ccc[n+](C)c5)ccc4c4[n]3[Zn][n]3c(c5ccc(Oc6ccc[n+](C)c6)cc5c3=NC3=NC(=N4)c4cc(Oc5ccc[n+](C)c5)ccc43)=N2)c1.[I-].[I-].[I-].[I-] [C5Zn-I]
Subcellular localization (HeLa) [1]: Ly
